According to article PMC2794458:
These are yes or no findings as the source states them, for the method shown. In cells and extracts the contact can be indirect. Some results given as binding are weak or reduced against the parent protein; the word gives no strength. Sequences can lack the tags named with a protein. One block for each binder: values may come before it.

Columns and labels:
[1] = target: T1, Nop14p-HA (S. cerevisiae) (UniProt Q99207); assay: co-IP; HA-tagged Nop14p immunoprecipitated with anti HA antibodies from the corresponding yeast cell extracts; co-precipitated Noc4p variants analysed (Fig. S1B)
T1 sequence: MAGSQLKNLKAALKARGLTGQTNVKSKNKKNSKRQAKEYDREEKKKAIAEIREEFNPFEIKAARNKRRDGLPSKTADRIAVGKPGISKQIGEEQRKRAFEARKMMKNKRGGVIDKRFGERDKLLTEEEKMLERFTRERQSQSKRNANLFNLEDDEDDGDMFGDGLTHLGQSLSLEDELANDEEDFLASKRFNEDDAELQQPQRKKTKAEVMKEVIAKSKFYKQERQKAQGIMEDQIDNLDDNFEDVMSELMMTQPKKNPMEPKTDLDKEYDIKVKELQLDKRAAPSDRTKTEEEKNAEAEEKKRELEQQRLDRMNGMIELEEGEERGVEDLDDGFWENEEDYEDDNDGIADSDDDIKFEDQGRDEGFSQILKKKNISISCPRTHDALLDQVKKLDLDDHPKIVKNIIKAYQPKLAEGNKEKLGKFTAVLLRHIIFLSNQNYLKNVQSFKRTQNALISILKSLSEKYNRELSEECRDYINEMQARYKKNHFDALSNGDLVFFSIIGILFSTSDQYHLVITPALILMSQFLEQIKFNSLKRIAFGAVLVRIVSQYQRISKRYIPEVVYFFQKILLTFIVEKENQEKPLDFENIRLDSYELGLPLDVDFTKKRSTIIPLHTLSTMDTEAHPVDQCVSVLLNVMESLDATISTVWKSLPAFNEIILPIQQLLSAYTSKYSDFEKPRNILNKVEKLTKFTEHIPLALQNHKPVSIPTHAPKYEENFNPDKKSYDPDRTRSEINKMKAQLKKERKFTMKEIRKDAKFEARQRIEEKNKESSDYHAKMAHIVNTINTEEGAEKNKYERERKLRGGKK

[2] = target: T2, ProtA-Noc4p lacking Domain 1 (S. cerevisiae) (UniProt Q06512); assay: co-IP; ProtA-Noc4p variants affinity purified on IgG-Sepharose from extracts of yeast ToY489 after 16 h on glucose to shut off wild-type NOC4; buffer A200 (200 mM KCl, 20 mM Tris pH 8.0, 5 mM MgAc, 1 mM DTT), 4°C; Nop14p-HA detected by Western blot with anti-HA
T2 sequence: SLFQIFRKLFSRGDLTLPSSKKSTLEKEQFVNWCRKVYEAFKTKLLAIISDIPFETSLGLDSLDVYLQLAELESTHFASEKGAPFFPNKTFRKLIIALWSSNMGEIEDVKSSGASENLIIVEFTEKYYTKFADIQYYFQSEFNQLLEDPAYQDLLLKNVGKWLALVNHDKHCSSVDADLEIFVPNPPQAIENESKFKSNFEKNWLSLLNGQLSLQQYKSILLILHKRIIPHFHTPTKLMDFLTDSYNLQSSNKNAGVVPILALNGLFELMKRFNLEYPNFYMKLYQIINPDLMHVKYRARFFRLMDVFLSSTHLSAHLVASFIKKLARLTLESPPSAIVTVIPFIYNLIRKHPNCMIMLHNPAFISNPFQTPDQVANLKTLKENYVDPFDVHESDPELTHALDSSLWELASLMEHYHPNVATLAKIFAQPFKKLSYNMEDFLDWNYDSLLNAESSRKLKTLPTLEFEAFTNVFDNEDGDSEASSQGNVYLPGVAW

[3] = target: T3, ProtA-Noc4p lacking Domain 1 to 5 (the 237 C-terminal amino acids of Noc4p) (S. cerevisiae) (UniProt Q06512); assay: as above
T3 sequence: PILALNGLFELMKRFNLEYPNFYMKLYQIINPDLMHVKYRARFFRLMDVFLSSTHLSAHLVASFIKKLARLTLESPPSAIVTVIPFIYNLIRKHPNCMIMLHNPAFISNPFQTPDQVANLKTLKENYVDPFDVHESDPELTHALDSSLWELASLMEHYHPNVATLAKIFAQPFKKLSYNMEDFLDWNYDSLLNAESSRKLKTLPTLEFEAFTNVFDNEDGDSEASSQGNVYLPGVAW

[4] = target: T4, full length ProtA-Noc4p (S. cerevisiae) (UniProt Q06512); assay: as above
T4 sequence: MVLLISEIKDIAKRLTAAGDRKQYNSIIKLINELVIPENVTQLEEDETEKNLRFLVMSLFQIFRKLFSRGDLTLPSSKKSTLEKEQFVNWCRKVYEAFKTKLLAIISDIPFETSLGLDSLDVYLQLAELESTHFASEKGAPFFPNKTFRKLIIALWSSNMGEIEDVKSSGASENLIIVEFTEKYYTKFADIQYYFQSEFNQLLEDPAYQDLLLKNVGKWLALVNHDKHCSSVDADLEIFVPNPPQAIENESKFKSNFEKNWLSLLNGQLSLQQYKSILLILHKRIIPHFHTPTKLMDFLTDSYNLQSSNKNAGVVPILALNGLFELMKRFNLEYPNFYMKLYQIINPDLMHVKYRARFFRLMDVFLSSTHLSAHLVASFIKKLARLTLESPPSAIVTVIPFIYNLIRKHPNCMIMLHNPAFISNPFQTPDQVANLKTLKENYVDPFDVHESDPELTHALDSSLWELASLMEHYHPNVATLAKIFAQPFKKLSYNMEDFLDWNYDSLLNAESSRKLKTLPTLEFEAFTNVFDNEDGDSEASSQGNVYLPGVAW

[5] = target: T5, Flag-noc4-dD1-D5 (S. cerevisiae) (UniProt Q06512); assay: co-IP; Flag-Noc4p variants co-expressed with HIS6-Nop14p in SF21 insect cells (MultiBac baculovirus, 48 h); immunoprecipitated on M2 anti-Flag agarose from the lysate (50 mM Tris/HCl pH 7.5, 100 mM NaCl, 5 mM MgCl2, 0.15% NP40), eluted with Flag-peptide; Western blot with His probe
T5 sequence: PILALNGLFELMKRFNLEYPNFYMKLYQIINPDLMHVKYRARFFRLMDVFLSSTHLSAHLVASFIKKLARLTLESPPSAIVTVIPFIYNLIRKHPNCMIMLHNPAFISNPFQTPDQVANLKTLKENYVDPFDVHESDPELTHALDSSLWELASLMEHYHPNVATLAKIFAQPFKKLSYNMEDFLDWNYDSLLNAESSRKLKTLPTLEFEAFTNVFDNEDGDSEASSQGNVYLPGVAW

[6] = target: T6, Flag-tagged full length Noc4p (S. cerevisiae) (UniProt Q06512); assay: as above
T6 sequence: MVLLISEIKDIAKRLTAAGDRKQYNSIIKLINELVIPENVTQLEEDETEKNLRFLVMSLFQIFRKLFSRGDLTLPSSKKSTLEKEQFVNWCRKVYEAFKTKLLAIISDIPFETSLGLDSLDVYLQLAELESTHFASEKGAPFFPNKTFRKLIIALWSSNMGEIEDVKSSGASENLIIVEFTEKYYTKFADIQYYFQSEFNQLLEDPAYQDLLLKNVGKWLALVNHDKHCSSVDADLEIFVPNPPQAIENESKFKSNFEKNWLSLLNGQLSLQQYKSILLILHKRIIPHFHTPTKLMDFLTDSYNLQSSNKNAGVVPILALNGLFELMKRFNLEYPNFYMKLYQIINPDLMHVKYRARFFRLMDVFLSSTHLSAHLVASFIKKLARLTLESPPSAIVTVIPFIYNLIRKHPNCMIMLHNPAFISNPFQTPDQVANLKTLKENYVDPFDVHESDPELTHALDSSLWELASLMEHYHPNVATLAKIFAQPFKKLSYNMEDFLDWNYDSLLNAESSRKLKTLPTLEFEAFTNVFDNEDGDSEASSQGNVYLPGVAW

binding [1]: binds
B1: ProtA-Noc4p lacking Domain 1 (domain or fragment, UniProt Q06512 58-552)
chain: SLFQIFRKLFSRGDLTLPSSKKSTLEKEQFVNWCRKVYEAFKTKLLAIISDIPFETSLGLDSLDVYLQLAELESTHFASEKGAPFFPNKTFRKLIIALWSSNMGEIEDVKSSGASENLIIVEFTEKYYTKFADIQYYFQSEFNQLLEDPAYQDLLLKNVGKWLALVNHDKHCSSVDADLEIFVPNPPQAIENESKFKSNFEKNWLSLLNGQLSLQQYKSILLILHKRIIPHFHTPTKLMDFLTDSYNLQSSNKNAGVVPILALNGLFELMKRFNLEYPNFYMKLYQIINPDLMHVKYRARFFRLMDVFLSSTHLSAHLVASFIKKLARLTLESPPSAIVTVIPFIYNLIRKHPNCMIMLHNPAFISNPFQTPDQVANLKTLKENYVDPFDVHESDPELTHALDSSLWELASLMEHYHPNVATLAKIFAQPFKKLSYNMEDFLDWNYDSLLNAESSRKLKTLPTLEFEAFTNVFDNEDGDSEASSQGNVYLPGVAW

binding [1]: binds
B2: full length ProtA-Noc4p (protein, UniProt Q06512 1-552)
chain: MVLLISEIKDIAKRLTAAGDRKQYNSIIKLINELVIPENVTQLEEDETEKNLRFLVMSLFQIFRKLFSRGDLTLPSSKKSTLEKEQFVNWCRKVYEAFKTKLLAIISDIPFETSLGLDSLDVYLQLAELESTHFASEKGAPFFPNKTFRKLIIALWSSNMGEIEDVKSSGASENLIIVEFTEKYYTKFADIQYYFQSEFNQLLEDPAYQDLLLKNVGKWLALVNHDKHCSSVDADLEIFVPNPPQAIENESKFKSNFEKNWLSLLNGQLSLQQYKSILLILHKRIIPHFHTPTKLMDFLTDSYNLQSSNKNAGVVPILALNGLFELMKRFNLEYPNFYMKLYQIINPDLMHVKYRARFFRLMDVFLSSTHLSAHLVASFIKKLARLTLESPPSAIVTVIPFIYNLIRKHPNCMIMLHNPAFISNPFQTPDQVANLKTLKENYVDPFDVHESDPELTHALDSSLWELASLMEHYHPNVATLAKIFAQPFKKLSYNMEDFLDWNYDSLLNAESSRKLKTLPTLEFEAFTNVFDNEDGDSEASSQGNVYLPGVAW

binding [2]: binds | binding [3]: binds | binding [4]: binds
B3: Nop14p-HA (protein, UniProt Q99207 1-810)
chain: MAGSQLKNLKAALKARGLTGQTNVKSKNKKNSKRQAKEYDREEKKKAIAEIREEFNPFEIKAARNKRRDGLPSKTADRIAVGKPGISKQIGEEQRKRAFEARKMMKNKRGGVIDKRFGERDKLLTEEEKMLERFTRERQSQSKRNANLFNLEDDEDDGDMFGDGLTHLGQSLSLEDELANDEEDFLASKRFNEDDAELQQPQRKKTKAEVMKEVIAKSKFYKQERQKAQGIMEDQIDNLDDNFEDVMSELMMTQPKKNPMEPKTDLDKEYDIKVKELQLDKRAAPSDRTKTEEEKNAEAEEKKRELEQQRLDRMNGMIELEEGEERGVEDLDDGFWENEEDYEDDNDGIADSDDDIKFEDQGRDEGFSQILKKKNISISCPRTHDALLDQVKKLDLDDHPKIVKNIIKAYQPKLAEGNKEKLGKFTAVLLRHIIFLSNQNYLKNVQSFKRTQNALISILKSLSEKYNRELSEECRDYINEMQARYKKNHFDALSNGDLVFFSIIGILFSTSDQYHLVITPALILMSQFLEQIKFNSLKRIAFGAVLVRIVSQYQRISKRYIPEVVYFFQKILLTFIVEKENQEKPLDFENIRLDSYELGLPLDVDFTKKRSTIIPLHTLSTMDTEAHPVDQCVSVLLNVMESLDATISTVWKSLPAFNEIILPIQQLLSAYTSKYSDFEKPRNILNKVEKLTKFTEHIPLALQNHKPVSIPTHAPKYEENFNPDKKSYDPDRTRSEINKMKAQLKKERKFTMKEIRKDAKFEARQRIEEKNKESSDYHAKMAHIVNTINTEEGAEKNKYERERKLRGGKK

binding [5]: binds | binding [6]: binds
B4: HIS6-Nop14p (protein, UniProt Q99207 1-810)
chain: MAGSQLKNLKAALKARGLTGQTNVKSKNKKNSKRQAKEYDREEKKKAIAEIREEFNPFEIKAARNKRRDGLPSKTADRIAVGKPGISKQIGEEQRKRAFEARKMMKNKRGGVIDKRFGERDKLLTEEEKMLERFTRERQSQSKRNANLFNLEDDEDDGDMFGDGLTHLGQSLSLEDELANDEEDFLASKRFNEDDAELQQPQRKKTKAEVMKEVIAKSKFYKQERQKAQGIMEDQIDNLDDNFEDVMSELMMTQPKKNPMEPKTDLDKEYDIKVKELQLDKRAAPSDRTKTEEEKNAEAEEKKRELEQQRLDRMNGMIELEEGEERGVEDLDDGFWENEEDYEDDNDGIADSDDDIKFEDQGRDEGFSQILKKKNISISCPRTHDALLDQVKKLDLDDHPKIVKNIIKAYQPKLAEGNKEKLGKFTAVLLRHIIFLSNQNYLKNVQSFKRTQNALISILKSLSEKYNRELSEECRDYINEMQARYKKNHFDALSNGDLVFFSIIGILFSTSDQYHLVITPALILMSQFLEQIKFNSLKRIAFGAVLVRIVSQYQRISKRYIPEVVYFFQKILLTFIVEKENQEKPLDFENIRLDSYELGLPLDVDFTKKRSTIIPLHTLSTMDTEAHPVDQCVSVLLNVMESLDATISTVWKSLPAFNEIILPIQQLLSAYTSKYSDFEKPRNILNKVEKLTKFTEHIPLALQNHKPVSIPTHAPKYEENFNPDKKSYDPDRTRSEINKMKAQLKKERKFTMKEIRKDAKFEARQRIEEKNKESSDYHAKMAHIVNTINTEEGAEKNKYERERKLRGGKK

binding [1]: binds
B5: ProtA-Noc4p lacking Domain 1 to 5 (the 237 C-terminal amino acids of Noc4p) (domain or fragment, UniProt Q06512 316-552)
chain: PILALNGLFELMKRFNLEYPNFYMKLYQIINPDLMHVKYRARFFRLMDVFLSSTHLSAHLVASFIKKLARLTLESPPSAIVTVIPFIYNLIRKHPNCMIMLHNPAFISNPFQTPDQVANLKTLKENYVDPFDVHESDPELTHALDSSLWELASLMEHYHPNVATLAKIFAQPFKKLSYNMEDFLDWNYDSLLNAESSRKLKTLPTLEFEAFTNVFDNEDGDSEASSQGNVYLPGVAW
